Results: PubChem BioAssay (EPA / NIEHS)
This list was built around the results that the source calls inconclusive (neither active nor inactive); the mix of calls is not that of the screen. For some assays here: A potency beside an inconclusive call is a rough fit, not a confirmed value. Activity calls are given as the source filed them. The calls were made as follows: active = hit-call score of the fitted dose curve at least 0.9, where 1 is the maximum; inconclusive = response in the unintended direction; inactive = score below 0.9.

What was measured:
[1] = CCTE_Mundy_HCI_hNP1_Pro_ResponderAvgInten: CCTE's Proliferation Assay in human neuroprogenitor cells, Mundy Lab (AID 2284224)
Outline: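 Proliferation was scored as BrdU labelling intensity in human neural progenitors derived from WA09 embryonic cells, measured 26.25 hours after chemical dosing. Activity was fitted relative to DMSO.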

[2] = TAMU_HCS_1.5hr_SingleDonor1434_Cytotoxicity: Cytotoxicity Assessment using High-content Screening (HCS) Fluorescent Imaging for the Texas A&M University (TAMU) 1.5-hr Human Induced Pluripotent Stem Cell (iPSC)-derived Cardiotoxicity Assay (AID 2284234)
Outline: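 Human iPSC-derived cardiomyocytes dosed at 0.2, 1, 10, 100 uM final (0.5% DMSO) for 90 min at 37 C. Hoechst 33342-stained nuclei counted by 10x high-content imaging; POD is EC10, a 10% drop in total cell count versus DMSO.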

[3] = CCTE_Mundy_HCI_Cortical_Synap_Neur_Matur_NeuronCount: CCTE's Synaptogenesis and Neurite Maturation Assay in rat cortical cells for Neuron Count, Mundy Lab (AID 2284242);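 as to AC50: neuron number from Hoechst nuclei and MAP2 staining by high-content imaging; hits reduce neuron count versus DMSO baseline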
Outline: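 Imaging-based neuron count in rat cortical cultures after chemical exposure from DIV 7 to DIV 12, with AraC added at DIV 5. Activity is fitted relative to DMSO.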

[4] = CCTE_Mundy_HCI_Cortical_NOG_NeuronCount: CCTE's Neurite Outgrowth Assay in rat cortical cells for Neuron Count, Mundy Lab (AID 2284236);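 also: neurons counted by imaging betaIII-tubulin and Hoechst stained cortical cells; cells exposed to compound for about 48 hours before fixation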
Outline: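 Read-out: neuron number by high-content imaging of betaIII-tubulin (Alexa Fluor-488) and Hoechst-labelled rat primary cortical cells.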

[5] = CCTE_Mundy_HCI_hNP1_CellTiter: CCTE's Cell Titer-Glo 2 Assay in human neuroprogenitor cells for Viability, Mundy Lab (AID 2284241);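 as to AC50: a hit is a drop in ATP luminescence versus DMSO meaning reduced viability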
Outline: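 Human neural progenitor cells (hNP1, WA09-derived) were plated on poly-L-ornithine/laminin and grown 40 to 44 hours at 37 °C, 5% CO2 before chemical addition. Twenty-four hours later, ATP was measured by CellTiter-Glo luminescence; loss of signal versus DMSO indicates reduced viability.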

[6] = CCTE_Shafer_MEA_acute_LDH: CCTE's Lactate Dehydrogenase Assay for Cytotoxicity in the Neural Acute Assay, Shafer Lab (AID 2284086);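 also: active means LDH release rises above DMSO vehicle level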
Outline: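 Released lactate dehydrogenase, read at 490 nm, indicated cytotoxicity after acute 40-min compound treatment of rat cortical neuron networks grown on 48-well MEA plates.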

[7] = CCTE_Mundy_HCI_hN2_NOG_NeuronCount: CCTE's Neurite Outgrowth Assay in human hN2 cells for Neuron Count, Mundy Lab (AID 2284221)
Outline: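 Read-out is the number of betaIII-tubulin-positive neurons imaged by automated high-content analysis, with DMSO as negative control.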

[8] = CCTE_Mundy_HCI_hN2_NOG_NeuriteCount: CCTE's Neurite Outgrowth Assay in human hN2 cells for Neurite Count, Mundy Lab (AID 2284219)
Outline: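 In this morphology assay, hNP1-derived neurons received test chemical 2 h post-plating and were fixed two days later in warm paraformaldehyde/sucrose containing Hoechst 33342. Neurites, labelled by rabbit anti-βIII-tubulin (1:800) and Alexa Fluor-488 (1:500), were counted automatically.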

## OCCCC(F)(F)C(F)(F)C(F)(F)C(F)(F)C(F)(F)C(F)(F)C(F)(F)C(F)(F)F
[1]
  outcome: inactive

## c1ccc2c(c1)Cc1ccccc1-2
[2]
  AC50: inconclusive: 50 µM

## CCOc1ccc2c(c1)C(C)=CC(C)(C)N2
[2]
  AC50: active: 50 µM

## CN(Cc1cnc2nc(N)nc(N)c2n1)c1ccc(C(=O)N[C@@H](CCC(=O)O)C(=O)O)cc1
[1]
  AC50: inconclusive: 0.000269 µM
[3]
  outcome: inactive

## Cc1nn(C)c(Oc2ccccc2)c1C=NOCc1ccc(C(=O)OC(C)(C)C)cc1
[1]
  AC50: active: 7.65 µM
[4]
  AC50: active: 0.327 µM
[5]
  AC50: inconclusive: 0.00438 µM
[3]
  AC50: active: 0.00225 µM

## O=c1[nH]cc(F)c(=O)[nH]1
[1]
  AC50: active: 4.62 µM
[4]
  AC50: inconclusive: 0.000116 µM

## O=P(O)(O)CCC(F)(F)C(F)(F)C(F)(F)C(F)(F)C(F)(F)C(F)(F)F
[1]
  AC50: inconclusive: 15 µM

## Nc1nc(N)c2nc(-c3ccccc3)c(N)nc2n1
[2]
  AC50: inconclusive: 50 µM

## O=C(Nc1ccc2c(O)c(N=Nc3ccc(N=Nc4ccc(S(=O)(=O)O)cc4)cc3)c(S(=O)(=O)O)cc2c1)c1ccccc1
[6]
  outcome: inactive

## CC1(C)C(C=C(Cl)Cl)C1C(=O)OCc1cccc(Oc2ccccc2)c1 (stereo unspecified)
[7]
  AC50: active: 20.2 µM
[1]
  outcome: inactive
[2]
  AC50: inconclusive: 50 µM
[4]
  AC50: active: 78.4 µM
[5]
  outcome: inactive

## FC(F)=C(F)C(F)(F)C(F)(F)C(F)(F)C(F)(F)C(F)(F)C(F)(F)F
[1]
  AC50: inconclusive: 15 µM

## C=CC(=O)OCCC(F)(F)C(F)(F)C(F)(F)C(F)(F)C(F)(F)C(F)(F)C(F)(F)C(F)(F)F
[1]
  AC50: inconclusive: 4.09 µM

## CCCc1cc(=O)[nH]c(=S)[nH]1
[8]
  outcome: inactive
[1]
  AC50: inconclusive: 3.97e-05 µM
[2]
  outcome: inactive
[3]
  outcome: inactive

## CC(C)NCC(O)COc1ccc(CC(N)=O)cc1 (stereo unspecified)
[2]
  AC50: inconclusive: 50 µM
